Here are results for one compound from patent US9844599B2, “Nitric oxide releasing produgs of therapeutic agents” (priority 2013, dated 2017).

This data set can be described thus: in vivo. The following applies: male, Sprague-Dawley, rat.

Take `COc1ccc2cc([C@H](C)C(=O)O)ccc2c1` [Naproxen, naproxen]: the concentration at 2 h is > 30000 ng/mL, the concentration at 4 h was > 20000 ng/mL and the concentration at 8 h was < 15000 ng/mL. Also, the Tmax – broadly, the time at which the peak concentration occurs – (po, 10 mg/kg) is < 15 min.
